In article PMC7819943, “Rice protein-binding microarrays: a tool to detect cis-acting elements near promoter regions in rice”:
This is one part of the list.

What follows are sequences tested against T1, OsSMF1 (Oryza sativa, UniProt Q6ZLB0 1-436) (assay: protein-binding microarray (RPBM); PBS, 2% BSA, 51.3 ng/ul salmon testes DNA, 50 uM zinc acetate, 200 nM TF, 25 C, 1 h; high values mean tight binding). Conditions: protein: recombinant; tags: N-terminal polyhistidine and DsRed monomer fusion (pET32a); chain copies: 2; label: CyDye5-dUTP incorporated in the synthesized complementary strand; 3' TTTTT single-stranded linker to array surface; dsDNA, one strand shown.
T1 sequence: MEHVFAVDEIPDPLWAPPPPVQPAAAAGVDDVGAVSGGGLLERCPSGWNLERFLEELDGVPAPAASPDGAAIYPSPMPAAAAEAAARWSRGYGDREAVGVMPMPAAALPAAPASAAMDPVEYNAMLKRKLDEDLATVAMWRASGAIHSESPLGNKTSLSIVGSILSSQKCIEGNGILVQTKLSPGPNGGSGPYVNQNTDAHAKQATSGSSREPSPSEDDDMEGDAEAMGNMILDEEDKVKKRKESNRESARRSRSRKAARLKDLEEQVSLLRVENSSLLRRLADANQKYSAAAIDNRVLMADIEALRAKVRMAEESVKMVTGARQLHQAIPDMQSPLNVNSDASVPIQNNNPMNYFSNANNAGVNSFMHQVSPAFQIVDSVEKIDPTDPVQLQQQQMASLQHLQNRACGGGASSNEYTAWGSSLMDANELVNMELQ
How it was run: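 Binding signal here means per-feature fluorescence intensity in arbitrary units. The values were read on an Axon 4000B scanner after a custom Agilent array, double-stranded by primer extension with Cy5-dUTP, was incubated with 200 nM protein at 25 °C for 1 h in PBS with 2% BSA, salmon testes DNA and 50 µM zinc acetate, then washed. The proteins were transcription factors with an N-terminal polyhistidine tag and DsRed, expressed in E. coli BL21-CodonPlus and purified on Ni–NTA.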

| Sequence | binding signal |
| --- | --- |
| TATATATATATAGCACGTCACGCTTAATATCATTCTGGTTCGGAGTCACCTAGTGCAG | 9050 fluorescence intensity (a.u.) |
| CGAGTGCGTCCCGTACCAACCAAACACGTCCGCTGTCATGCGGAGTCACCTAGTGCAG | 4710 fluorescence intensity (a.u.) |
| GGACAACCCAGATCCCTCGCCCGCGACTCTTCTACTCGCGCGGAGTCACCTAGTGCAG | 22800 fluorescence intensity (a.u.) |
| AATCCTAAATCAATCACCATAAGGTAAATTGACGTAGGAACGGAGTCACCTAGTGCAG | 6050 fluorescence intensity (a.u.) |
| TGAAACGCTGACCGAGTCATCAGATATGGCTTATGTGCCTCGGAGTCACCTAGTGCAG | 5790 fluorescence intensity (a.u.) |
| AGCTACTGCGGCACTAGTCACTCTCTCTCTCTCTCTCTATCGGAGTCACCTAGTGCAG | 3820 fluorescence intensity (a.u.) |
| GTCAAGTGCTGACAAGTGTCTGCACTAGCTAGAGATATATCGGAGTCACCTAGTGCAG | 3770 fluorescence intensity (a.u.) |
| AGCGAGCGACGGGCGGGGCGGAGCGGGGCGGGGCTGCATTCGGAGTCACCTAGTGCAG | 4380 fluorescence intensity (a.u.) |
| TAGTGACCAGCTATTTGTCAGCAATGCTTGGTGCGTTGGACGGAGTCACCTAGTGCAG | 4096 fluorescence intensity (a.u.) |
| GTGGGTGGGCCGAATCCTTTTGTAAGAGGAGATCAGTAAGCGGAGTCACCTAGTGCAG | 3210 fluorescence intensity (a.u.) |
| CCTTCACATGAGAGAATTGATGACGCCACATGCGAGACCCCGGAGTCACCTAGTGCAG | 3860 fluorescence intensity (a.u.) |
| AAAGCATTTCCTTTTCTTTCGAAGATGAAATAAAACAGAGCGGAGTCACCTAGTGCAG | 3570 fluorescence intensity (a.u.) |
| CACGCACACCACTCGTCAACACCACACCACATATCATCCCCGGAGTCACCTAGTGCAG | 7220 fluorescence intensity (a.u.) |
| ACGCGCAGATCGCCGCGCGCCCGCCTCCCCTCGCAGCCGCCGGAGTCACCTAGTGCAG | 16300 fluorescence intensity (a.u.) |
| TCATATCGTGGCTTTCGCTGACGTAGATTTACATTGGACCCGGAGTCACCTAGTGCAG | 13800 fluorescence intensity (a.u.) |
| AACAGAGGAGTTCTTCACTCAGTGTCTTTCTAAACAAGGGCGGAGTCACCTAGTGCAG | 3920 fluorescence intensity (a.u.) |
| TTGCTCACCTGAACAATGAACATGCATGTTCAGGACATCACGGAGTCACCTAGTGCAG | 3150 fluorescence intensity (a.u.) |
| CAGACAATGCCAATCCTTTGGTCAGCATCTAGCAAGCAATCGGAGTCACCTAGTGCAG | 3200 fluorescence intensity (a.u.) |
| CTGTGGACTGTGTGGCATGTATGCTGACCTTTTGTTTTGCCGGAGTCACCTAGTGCAG | 3140 fluorescence intensity (a.u.) |
| GCACGTTGCACGCCATGGCGAGGCACTCGGTGACGCCGGCCGGAGTCACCTAGTGCAG | 3390 fluorescence intensity (a.u.) |
| AAATGACTTTCTCGTCTTATGCTGACTTCATCTTCATTTTCGGAGTCACCTAGTGCAG | 4740 fluorescence intensity (a.u.) |

3 entries from above, set out differently:
Sequence | binding signal
CAGACAATGCCAATCCTTTGGTCAGCATCTAGCAAGCAATCGGAGTCACCTAGTGCAG | 3200 fluorescence intensity (a.u.)
CTGTGGACTGTGTGGCATGTATGCTGACCTTTTGTTTTGCCGGAGTCACCTAGTGCAG | 3140 fluorescence intensity (a.u.)
GCACGTTGCACGCCATGGCGAGGCACTCGGTGACGCCGGCCGGAGTCACCTAGTGCAG | 3390 fluorescence intensity (a.u.)

More results follow.

| Sequence | binding signal |
| --- | --- |
| TCTCCAGTTTCTGGCCAGCGAGGCATGATAGCCACCTCAACGGAGTCACCTAGTGCAG | 3280 fluorescence intensity (a.u.) |
| ATGAAGCTTTACGTAAGCGGTGACGAAGCAAGTGCACATGCGGAGTCACCTAGTGCAG | 5480 fluorescence intensity (a.u.) |
| CTAATGATCATTCATGTGAATATGACATTTCACCCGGAAACGGAGTCACCTAGTGCAG | 3160 fluorescence intensity (a.u.) |
| GAGGGAGGCGGCAATGATCTCCTCGACCTCTCGCTACTCCCGGAGTCACCTAGTGCAG | 3210 fluorescence intensity (a.u.) |
| GACTTCAAGACACAATGTGTGTATGACAGGTTGGACCATACGGAGTCACCTAGTGCAG | 4340 fluorescence intensity (a.u.) |
| TCCACACCAACCAATCGCAAATCACGCCGACGTGGAGCGCCGGAGTCACCTAGTGCAG | 14500 fluorescence intensity (a.u.) |
| GGCCCTTGGTGAGGTGGATGGAGACGGCGTGGGACTTGACCGGAGTCACCTAGTGCAG | 4850 fluorescence intensity (a.u.) |
| CATACCGACATACGTATACATTGACATCATCATTGACGTGCGGAGTCACCTAGTGCAG | 4680 fluorescence intensity (a.u.) |
| CACTCACTGGCTGCACGTCATTTGATTATGCATTTTCCGGCGGAGTCACCTAGTGCAG | 6260 fluorescence intensity (a.u.) |
| TTATATACGTGTTCTCGGTGACTTAAAAGCCAATGCTTAACGGAGTCACCTAGTGCAG | 3140 fluorescence intensity (a.u.) |
| AGGCCTAACGTGGGCCAGGCCACTATATGCAGATGGGCTACGGAGTCACCTAGTGCAG | 3330 fluorescence intensity (a.u.) |
| GAAGCCGTAGTCGGAGCCGTCCATGTGGCCGGCTGGAGCTCGGAGTCACCTAGTGCAG | 4390 fluorescence intensity (a.u.) |
| ATTTCAATGTCAAGATGAGAAGGGAATTTAAGAGCCTGCACGGAGTCACCTAGTGCAG | 22800 fluorescence intensity (a.u.) |
| ATTTCAGGCGCCGCTCGGCACGGCCGTGTCACGACGCGATCGGAGTCACCTAGTGCAG | 4510 fluorescence intensity (a.u.) |
| GTTGCGGCGGGCGTGCGCTGCGGATCCCGGTGGCAGCACGCGGAGTCACCTAGTGCAG | 3780 fluorescence intensity (a.u.) |
| ACTATGTTCACGAGTCATACGGTCGGATCATACAAGATTGCGGAGTCACCTAGTGCAG | 3570 fluorescence intensity (a.u.) |
| TATATAACCTAAAATGGAGGAAGTAGGAAATATGTAATTCCGGAGTCACCTAGTGCAG | 4630 fluorescence intensity (a.u.) |
| CTAGTTCCAGATGATCCAGCTGAGAGCTCCAAGGCTATTCCGGAGTCACCTAGTGCAG | 22800 fluorescence intensity (a.u.) |
| CCTCTACGGGTTGCAAGTGGCCACGCACAGTTGCGTTGGTCGGAGTCACCTAGTGCAG | 4010 fluorescence intensity (a.u.) |
| CGTCAGATACTGCGGTGATAATGTATACAAGTGGCAGCACCGGAGTCACCTAGTGCAG | 4830 fluorescence intensity (a.u.) |
| ATGGTTTTACACACATACAGATGATGTAATCATGTAATCCCGGAGTCACCTAGTGCAG | 5840 fluorescence intensity (a.u.) |
